Results: PubChem BioAssay AID256 (DTP/NCI, 2004)
The list does not hold the whole screen: it is rich in T/C values a quarter to a half above the control, in often repeated tests (any T/C) and in doses without a T/C. Other doses and runs of a compound stand elsewhere. T/C gives the treated animals as a percentage of the vehicle group. Some doses have a count of surviving animals in place of a T/C: the source files T/C as zero there, which appears to mark a toxic dose or a test without result, not a measured value. Some survivor counts are full or nearly so, which does not show that the dose was tolerated: survival well below the control is almost never listed, so the zero probably covers shortened survival too. Counts of survivors are from the toxicity check (mostly the fifth day) where no day follows; animals may have died later. Schedule codes are those of the source, read here as Q, the interval in days (D) or hours (H), X, the number of doses. Some entries hold several experiments; the values are given in rising order. For survival time, the PubChem record calls one and a half times the control and up active, and a quarter to a half above the control has no call in these data; cut-offs in other NCI protocols can differ. Some T/C values are followed by the survivors on the day toxicity was checked, most often the fifth; without a count, all were alive then.

Tested on: CD2F1 mice, L1210 leukemia ip, survival T/C
Assay: NCI In Vivo Anticancer Drug Screen. Data for tumor model L1210 Leukemia (intraperitoneal) in CD2F1 (CDF1) mice
Conditions: higher T/C = longer survival
In short: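 Mice carrying a transplanted tumor received test compound or vehicle alone. The value is the measurement in the treated group divided by that in the vehicle-treated control group.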

[1] = T/C endpoint: mean survival time, dose: 25.0 mg/kg/injection, schedule: Q04DX002 (ip), vehicle: saline with Tween-80
[2] = T/C endpoint: mean survival time, dose: 100.0 mg/kg/injection, schedule: Q04DX002 (ip), vehicle: saline with Tween-80
[3] = T/C endpoint: mean survival time, dose: 200.0 mg/kg/injection, schedule: Q04DX002 (ip), vehicle: saline with Tween-80
[4] = T/C endpoint: mean survival time, dose: 400.0 mg/kg/injection, schedule: Q04DX002 (ip), vehicle: saline with Tween-80
[5] = T/C endpoint: mean survival time, dose: 100.0 mg/kg/injection, schedule: Q04DX003 (ip), vehicle: saline with Tween-80
[6] = T/C endpoint: mean survival time, dose: 200.0 mg/kg/injection, schedule: Q04DX003 (ip), vehicle: saline with Tween-80
[7] = T/C endpoint: mean survival time, dose: 200.0 mg/kg/injection, schedule: Q01DX009 (ip), vehicle: saline with Tween-80
[8] = T/C endpoint: mean survival time, dose: 400.0 mg/kg/injection, schedule: Q01DX009 (ip), vehicle: saline with Tween-80
[9] = T/C endpoint: median survival time, dose: 100.0 mg/kg/injection, schedule: Q01DX009 (ip), vehicle: saline with Tween-80

`ClC(Cl)=[C](Cl)[Hg][C](Cl)=C(Cl)Cl` was tested, and the survivor count (T/C endpoint: mean survival time, dose: 12.5 mg/kg/injection, schedule: Q01DX009 (ip), vehicle: saline with Tween-80) was 2 of 6, the survivor count (T/C endpoint: mean survival time, dose: 25.0 mg/kg/injection, schedule: Q01DX009 (ip), vehicle: saline with Tween-80) was 0 of 6 and the survivor count [1] was 1 of 3. For the same compound, the survivor count (T/C endpoint: mean survival time, dose: 50.0 mg/kg/injection, schedule: Q04DX002 (ip), vehicle: saline with Tween-80) was 0 of 3, the survivor count [2] was 0 of 3 and the survivor count [3] was 0 of 3. For the same compound, the survivor count [4] was 0 of 3.

In the case of `CC(CCC(C)(C)O)C1CCC2C3C(O)CC4CCCCC4(C)C3CC(O)C12C` (stereo not drawn), the survivor count [5] is reported as 6 of 6 and the survivor count [6] is reported as 6 of 6.

`NC(=O)C(O)(c1ccc(Br)cc1)C(Cl)Cl` (stereo not drawn) was tested, and the T/C [3] was 135 % of control [2 of 3 alive], the survivor count (T/C endpoint: mean survival time, dose: 228.0 mg/kg/injection, schedule: Q04DX002 (ip), vehicle: saline with Tween-80) was 6 of 10 and the survivor count [4] was 0 of 3.

In the case of `O=C(O)c1nc2ccccc2c(=O)[nH]1`, the survivor count (T/C endpoint: mean survival time, dose: 400.0 mg/kg/injection, schedule: Q01DX001 (ip), vehicle: saline with Tween-80) is reported as 2 of 6.

In the case of `CCOC/C(C)=C/Cl`, the survivor count (T/C endpoint: mean survival time, dose: 400.0 mg/kg/injection, schedule: Q01DX009 (ip), vehicle: acetone) is reported as 0 of 6.

`O=C(O)C1CCCCC1C(=O)O.[NH-]C1CCCCC1[NH-].[Pt+2]` (stereo not drawn) was tested, and the T/C (T/C endpoint: mean survival time, dose: 25.0 mg/kg/injection, schedule: Q04DX003 (ip), vehicle: other) was 127 % of control and the T/C (T/C endpoint: mean survival time, dose: 50.0 mg/kg/injection, schedule: Q04DX003 (ip), vehicle: other) was 132 % of control.

In the case of `NC1CCCCC1N.O=S(=O)([O-])c1ccccc1S(=O)(=O)[O-].[Pt+4]`, the survivor count (T/C endpoint: median survival time, dose: 50.0 mg/kg/injection, schedule: Q04DX003 (ip), vehicle: saline) is reported as 6 of 6, the survivor count (T/C endpoint: median survival time, dose: 100.0 mg/kg/injection, schedule: Q04DX003 (ip), vehicle: saline) is reported as 6 of 6 and the survivor count (T/C endpoint: median survival time, dose: 200.0 mg/kg/injection, schedule: Q04DX003 (ip), vehicle: saline) is reported as 5 of 6.

`Brc1ccc(N=C=C(c2ccccc2)c2ccccc2)cc1` was tested, and the survivor count (T/C endpoint: mean survival time, dose: 400.0 mg/kg/injection, schedule: Q04DX003 (ip), vehicle: saline with Tween-80) was 0 of 6.

`Cc1ccccc1N=C=S` was tested, and the survivor count (T/C endpoint: mean survival time, dose: 100.0 mg/kg/injection, schedule: Q01DX009 (ip), vehicle: saline with Tween-80) was 1 of 6, the survivor count [7] was 0 of 6 and the survivor count [8] was 0 of 6.

In the case of `CN(C)CCC=C1c2ccccc2-c2ccccc21`, the survivor count (T/C endpoint: mean survival time, dose: 150.0 mg/kg/injection, schedule: Q01DX009 (ip), vehicle: saline) is reported as 0 of 6, the survivor count (T/C endpoint: mean survival time, dose: 225.0 mg/kg/injection, schedule: Q01DX009 (ip), vehicle: saline) is reported as 0 of 6 and the survivor count (T/C endpoint: mean survival time, dose: 335.0 mg/kg/injection, schedule: Q01DX009 (ip), vehicle: saline) is reported as 0 of 6.

For `O=C(N/N=C(/C(=N/NC(=O)c1ccccc1)c1ccccc1)c1ccccc1)c1ccccc1`, the survivor count [5] was 6 of 6.

In the case of `CC(=O)c1ccccc1[N+](=O)[O-]`, the survivor count [8] is reported as 5 of 6.

For `CCN(CC)C1=C(Cl)C(=O)C(=O)c2cccnc21`, the survivor count (T/C endpoint: mean survival time, dose: 18.8 mg/kg/injection, schedule: Q01DX009 (ip), vehicle: saline) was 4 of 6 and the survivor count (T/C endpoint: mean survival time, dose: 37.5 mg/kg/injection, schedule: Q01DX009 (ip), vehicle: saline) was 2 of 6.

In the case of `O=C(CNC(=O)Nc1cccc([N+](=O)[O-])c1)NNC(=O)Nc1ccccc1F`, the survivor count [8] is reported as 6 of 6.

In the case of `CNCC(=O)NC(CO)C(=O)NC(CO)C(=O)NC1C(C(N)=O)OC(n2ccc(N)nc2=O)C(O)C1O` (stereo not drawn), the survivor count (T/C endpoint: mean survival time, dose: 1.5 mg/kg/injection, schedule: Q01DX005 (ip), vehicle: water) is reported as 4 of 6, the survivor count (T/C endpoint: mean survival time, dose: 3.0 mg/kg/injection, schedule: Q01DX005 (ip), vehicle: water) is reported as 3 of 6 and the survivor count (T/C endpoint: mean survival time, dose: 3.13 mg/kg/injection, schedule: Q01DX005 (ip), vehicle: water) is reported as 3 of 6. The survivor count (T/C endpoint: mean survival time, dose: 6.25 mg/kg/injection, schedule: Q01DX005 (ip), vehicle: water) was 1 of 6, the survivor count (T/C endpoint: mean survival time, dose: 12.5 mg/kg/injection, schedule: Q01DX005 (ip), vehicle: water) was 0 of 6 and the survivor count (T/C endpoint: mean survival time, dose: 25.0 mg/kg/injection, schedule: Q01DX005 (ip), vehicle: water) was 0 of 6. The survivor count (T/C endpoint: mean survival time, dose: 50.0 mg/kg/injection, schedule: Q01DX005 (ip), vehicle: water) was 0 of 6.

`N/N=C1\CC2C3CC4(OCCO4)C4C3CC2C14` (stereo not drawn) was tested, and the survivor count (T/C endpoint: mean survival time, dose: 300.0 mg/kg/injection, schedule: Q01DX001 (ip), vehicle: saline) was 1 of 6.

In the case of `C=C(COC(C)(C)C)CN(C)C`, the survivor count [7] is reported as 1 of 6.

`CCOC(=O)C(N)CSC(=O)NC` (stereo not drawn) was tested, and the T/C (T/C endpoint: mean survival time, dose: 400.0 mg/kg/injection, schedule: Q01DX009 (ip), vehicle: saline) was 132 and 133 % of control.

With `N#CN=[N+]([O-])c1ccc(C(=O)O)cc1` the survivor count (T/C endpoint: median survival time, dose: 60.0 mg/kg/injection, schedule: Q01DX009 (ip), vehicle: Klucel (hydroxypropylcellulose) (HPC)) was 0 of 10.

`C[N+](C)=CN1c2ccccc2Sc2ccccc21` was tested, and the survivor count [8] was 2 of 6.

For `CC12C(=O)C=CCC1=CCC1C2CCC2(O)C(=O)OC3(C)C4CC5(C)C(COC16OC23C5C6=O)C(=O)O4` (stereo not drawn), the survivor count (T/C endpoint: median survival time, dose: 400.0 mg/kg/injection, schedule: Q01DX009 (ip), vehicle: Klucel (hydroxypropylcellulose) (HPC)) was 2 of 6.

In the case of `COc1cc2c(cc1OC)-c1cc(C)c3cc(OC)c(OC)cc3[n+]1CC2`, the survivor count (T/C endpoint: mean survival time, dose: 200.0 mg/kg/injection, schedule: Q01DX009 (ip), vehicle: other) is reported as 1 of 6.

With `C1CC2N=NC1C21CC1.[Cl][Cu][Cl]` the survivor count [1] was 1 of 3.

With `NS(=O)(=O)OCCCCCCCOS(N)(=O)=O` the T/C (T/C endpoint: median survival time, dose: 25.0 mg/kg/injection, schedule: Q01DX009 (ip), vehicle: saline with Tween-80) was 125, 128, 129, 145 % of control, the T/C (T/C endpoint: median survival time, dose: 50.0 mg/kg/injection, schedule: Q01DX009 (ip), vehicle: saline with Tween-80) was 141, 153, 171, 191 % of control and the T/C [9] was 107, 113, 141, 153 % of control. The survivor count (T/C endpoint: median survival time, dose: 200.0 mg/kg/injection, schedule: Q01DX009 (ip), vehicle: saline with Tween-80) was 10 of 10 and 6 of 6 and the survivor count (T/C endpoint: median survival time, dose: 400.0 mg/kg/injection, schedule: Q01DX009 (ip), vehicle: saline with Tween-80) was 6 of 6.

`C=C(Cl)CSCCS` was tested, and the survivor count (T/C endpoint: mean survival time, dose: 200.0 mg/kg/injection, schedule: Q01DX009 (ip), vehicle: acetone) was 2 of 6.

With `C[Si](C)(C)NP(=O)(Oc1ccc([N+](=O)[O-])cc1)Oc1ccc([N+](=O)[O-])cc1` the survivor count (T/C endpoint: mean survival time, dose: 250.0 mg/kg/injection, schedule: Q01DX001 (ip), vehicle: other) was 0 of 6 and the survivor count (T/C endpoint: mean survival time, dose: 500.0 mg/kg/injection, schedule: Q01DX001 (ip), vehicle: other) was 0 of 6.

For `N#CC(/C=C/c1ccccc1)Nc1ccccc1O` (stereo not drawn), the survivor count [7] was 2 of 6 and the survivor count [8] was 0 of 6.

In the case of `CC(=O)Nc1cc(N)cc(-c2ccccc2)c1`, the T/C [2] is reported as 91, 100, 104, 122 % of control, the T/C [3] is reported as 95, 100, 108, 125 % of control and the T/C [4] is reported as 91, 92, 103, 112 % of control.

In the case of `CSC(SC)=C(C#N)C#N`, the survivor count (T/C endpoint: mean survival time, dose: 100.0 mg/kg/injection, schedule: Q04DX002 (ip), vehicle: saline) is reported as 3 of 6.

With `COC(=O)C1CN1C1=C(C)C(=O)C2=C(C1=O)C(COC(N)=O)C1(OC)C3NC3CN21` (stereo not drawn) the survivor count (T/C endpoint: median survival time, dose: 48.0 mg/kg/injection, schedule: Q01DX001 (ip), vehicle: water) was 5 of 6 and the survivor count (T/C endpoint: median survival time, dose: 96.0 mg/kg/injection, schedule: Q01DX001 (ip), vehicle: water) was 0 of 6.

In the case of `CO[C@]12[C@@H](COC(N)=O)C3=C(C(=O)C(C)=C(NCCCO)C3=O)N1C[C@@H]1[C@H]2N1C` (stereo partly drawn), the T/C (T/C endpoint: mean survival time, dose: 300.0 mg/kg/injection, schedule: Q01DX001 (ip), vehicle: distilled water + Tween-80) is reported as 133 % of control.

In the case of `Cc1cc(C)c(C)c(Br)c1`, the survivor count (T/C endpoint: mean survival time, dose: 200.0 mg/kg/injection, schedule: Q01DX009 (ip), vehicle: saline sonified) is reported as 2 of 6, the survivor count [6] is reported as 1 of 6 and the survivor count (T/C endpoint: mean survival time, dose: 400.0 mg/kg/injection, schedule: Q01DX009 (ip), vehicle: saline sonified) is reported as 0 of 6.

`CC(O)C1(O)C(O)CC(OC2c3cc4c(c(O)c3[C@@H]3C[C@@]2(C)OC32C=c3cc[nH]c3=N2)C(=O)c2cccc(O)c2C4=O)OC1C` (stereo partly drawn) was tested, and the survivor count [9] was 4 of 6.

In the case of `O=C(O)CC(NC(=O)OCc1ccccc1)C(=O)OCc1ccccc1` (stereo not drawn), the survivor count [8] is reported as 3 of 6.
